# Screen size: about 360,000 compounds; about 7,500 (2.1%) were called active. This list was built around the results that the source calls inconclusive (neither active nor inactive); the mix of calls is not that of the screen. Calls come from the whole dose curve; as a rule, active = well fitted inhibition curve with a large enough effect; inconclusive = small, poorly fitted or top-dose-only effect, or effect the other way; inactive = flat fitted curve, though single readings scatter. Potencies of inconclusive entries are doubtful fits and often do not repeat.
# Assay: Nrf2 qHTS screen for inhibitors; note: nearly all actives have a fitted effect of over 60% in size
# Details: A549 ARE-Fluc reporter, luciferase luminescence, 18-24 h; activity change, negative = inhibition: at 46 µM (top of the series)
# Method in brief: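 Nrf2 activity is the BugLite luminescence, read 15 min after reagent at room temperature, following CellTiter-Fluor cytotoxicity readout (30 min, 37C). Compound titrations were applied for 18-24 h to 5000 A549 ARE_Fluc cells/well in 5% FBS OPTI-MEM.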
# % is set by controls: 0 for no effect and ±100 for the full control effect; potency is the fitted concentration of half-maximal effect.
Structure (SMILES),Potency,"activity change, negative = inhibition"
CCOc1ccc(N2CC(C(=O)NC3CCCC3)CC2=O)cc1 (configuration not stated),"inconclusive: 5.8 µM [activator, single point]",–
COc1ccc(/C(C#N)=C/c2ccccn2)cc1,"inconclusive: 11.6 µM [activator, partial curve, poor fit]",–
CCCCc1cc(=O)oc2cc(C)cc(OC(C)C(=O)NCC3CCC(C(=O)O)CC3)c12 (configuration not stated),–,inactive: -9.2%
O=C(NC(=O)c1ccccc1)Nc1ccccc1,"inconclusive: 1.3 µM [activator, full curve, poor fit]",–
O=C(NC(=S)Nc1ccc(Br)cn1)c1cccs1,"inconclusive: 4.61 µM [activator, full curve, poor fit]",–
O=C(Nc1nc2ccc(Cl)cc2s1)C1CC1,"inconclusive: 1.84 µM [activator, partial curve, poor fit]",–
Cc1cccc(NC(=O)CSc2nc(-c3cccc(C)c3)nc3c2Cc2c(CO)cnc(C)c2O3)c1,"inconclusive: 20.6 µM [activator, single point]",–
[O-]/[N+](=C/c1ccc(F)cc1)c1ccc(Cl)cc1,"inconclusive: 14.6 µM [activator, partial curve]",–
COc1ccccc1-c1cnn2c(NCc3ccccc3)cc(C)nc12,"inconclusive: 29.1 µM [activator, single point]",–
CCOC(=O)c1ccc(N/C=C/C(=O)c2ccccc2)cc1,"inconclusive: 20.6 µM [activator, single point]",–
CCN(CC)S(=O)(=O)c1cc(NC(=O)CCc2c(C)noc2C)ccc1C,"inconclusive: 23.1 µM [falling, single point]",–
Cc1ccccc1CNC(=O)Cn1c(C)c2cnn(-c3ccccc3)c(=O)c2c1C,–,inconclusive: 54% [activator]
CCOC(=O)COc1ccc(/C=C(\C#N)c2nc3ccc(C)cc3[nH]2)cc1OC,–,inactive: -19%
O=C(CSc1ccccc1C(=O)NCc1ccccc1)NC12CC3CC(CC(C3)C1)C2,"inconclusive: 23.1 µM [falling, single point]",–
CN(C)S(=O)(=O)c1cccc(NC(=O)COC(=O)COc2ccc(Br)cc2)c1,"inconclusive: 29.1 µM [falling, single point]",–
Cc1cc(-c2ccc(C(C)C)c(S(=O)(=O)N3CCOc4ccccc43)c2)on1,active: 20.6 µM,–
COc1ccc([N+](=O)[O-])cc1C(=O)NC1CCN(Cc2ccccc2)CC1,"inconclusive: 0.651 µM [falling, partial curve]",–
Cc1ccc(C)c(NC(=O)Cn2ncc3c([nH]c4ccccc43)c2=O)c1,–,inactive: 28.3%
Cc1cc(/C=C2/C(=O)N(C)C(=S)N2C)c(C)n1C1CC1,"inconclusive: 20.6 µM [activator, partial curve]",–
CCCCNC(=O)c1onc(CSc2ccccc2CC)c1C(=O)O,"inconclusive: 29.1 µM [activator, single point]",–
COc1ccccc1N(C)S(=O)(=O)c1ccc(C(=O)NNC(=O)c2ccccc2O)cc1,–,inactive: 0.602%
FC(F)(F)c1nnc(N2CCN(c3ccc(Cl)cc3)CC2)s1,"inconclusive: 4.11 µM [falling, full curve, poor fit]",–
O=C(NN=Cc1ccc(Cl)cc1Cl)C1CC1,"inconclusive: 14.6 µM [falling, partial curve, poor fit]",–

# Complete entries, quoted from the list. Values in the order: Potency	activity change, negative = inhibition
# FC(F)(F)c1nnc(N2CCN(c3ccc(Cl)cc3)CC2)s1 in the list: inconclusive: 4.11 µM [falling, full curve, poor fit]	–
# CCCCc1cc(=O)oc2cc(C)cc(OC(C)C(=O)NCC3CCC(C(=O)O)CC3)c12 (configuration not stated) in the list: –	inactive: -9.2%
# COc1ccc(/C(C#N)=C/c2ccccn2)cc1 in the list: inconclusive: 11.6 µM [activator, partial curve, poor fit]	–

# (cont.)

Structure (SMILES),Potency,"activity change, negative = inhibition"
O=C(c1cc(-c2cccs2)nn1-c1ccccc1)N1CCN(S(=O)(=O)c2ccccc2)CC1,"inconclusive: 0.0073 µM [falling, full curve, poor fit]",–
Cc1ccccc1C(=O)NCC(=O)Nc1ccc(C)c(S(=O)(=O)N2CCCCCC2)c1,"inconclusive: 20.6 µM [falling, partial curve]",–
Cc1ccc(N(C)C(=O)CC(C)S(=O)(=O)c2ccc3c(c2)NC(=O)CO3)cc1 (configuration not stated),"inconclusive: 0.092 µM [activator, full curve, poor fit]",–
Cn1c(-c2cccs2)[n+](C)c2ccccc21,"inconclusive: 29.1 µM [falling, partial curve, poor fit]",–
CC(C)N(C(=O)[C@H]1CC(CC(=O)NCCC2=CCCCC2)C(=O)N2CCc3c([nH]c4ccccc34)[C@]12C)C(C)C (some centres not stated),"inconclusive: 23.1 µM [falling, single point]",–
COc1ccc(CCNC(=O)c2csc3c2CCCCC3)c(OC)c1,"inconclusive: 4.61 µM [activator, full curve]",–
Cc1[nH]c2ccccc2c1C(=O)COC(=O)c1c(-c2ccccc2)noc1C,"inconclusive: 20.6 µM [falling, single point]",–
Cc1ccc(CSC(Nc2ccc(F)cc2)=C(C#N)C#N)cc1,active: 20.6 µM,–
COc1ccccc1OCCCCn1c(C(C)O)nc2ccccc21 (configuration not stated),"inconclusive: 0.184 µM [falling, full curve, poor fit]",–
N#Cc1ccc(N)cc1OCCCN1CCCCC1,"inconclusive: 29.1 µM [activator, partial curve, poor fit]",–
CCc1ccc(CN(Cc2ccco2)C(=O)COc2ccccc2Cl)cc1,"inconclusive: 29.1 µM [falling, single point]",–
COc1cccc(Nc2nc3ccc(OC)cc3s2)c1,"inconclusive: 9.2 µM [activator, partial curve]",–
CCOC(=O)N1CCN(S(=O)(=O)c2c(C(=O)N3CCCCC3)c(C)n(C)c2C)CC1,–,inactive: -9.75%
Cc1cccc(-n2c(=O)c3c(c4cc(C)ccc4n3C)n(C)c2=O)c1,–,inactive: 17.3%
O=C(O)c1ccccc1NC(=S)NC(=O)c1cccc2ccccc12,–,inactive: 1.57%
C/C(=N\Nc1ccccn1)c1ccc(N2CCOCC2)cc1,–,inactive: 36.7%
CCc1ccc(C(=O)c2cc3ccc(O)cc3oc2=O)cc1,–,inactive: 5.35%
COc1ccccc1C(=O)Nc1sc2c(c1C#N)CCC2,"inconclusive: 3.66 µM [activator, full curve]",–
Cc1cc(C(=O)Nc2ccc3c(c2)OCCO3)c(C)o1,"inconclusive: 1.84 µM [activator, full curve, poor fit]",–
Cc1c(Cl)cccc1NC(=O)N1CCC(CN2CCOCC2)CC1,–,inactive: -11.7%
C/C(Cn1nnc([N+](=O)[O-])n1)=N\NC(=O)c1ccccc1,–,inactive: -12.3%
O=C(N/N=C/C(Br)=C\c1ccccc1)c1cccs1,"inconclusive: 6.51 µM [activator, partial curve]",–
Cc1ccc(CSCCNS(C)(=O)=O)cc1,"inconclusive: 2.31 µM [falling, partial curve, poor fit]",–

Structure (SMILES),Potency,"activity change, negative = inhibition"
CCOc1cc(/C=C/c2ccc3cccc([N+](=O)[O-])c3n2)ccc1O,active: 23.1 µM,–
CCN(CC)S(=O)(=O)c1cc(NC(=O)Cc2ccc(S(=O)(=O)N3CCOCC3)s2)ccc1Cl,active: 1.3 µM,–
O=C(N/N=C\C=C\c1ccc2c(c1)OCO2)c1ccc(F)cc1,"inconclusive: 20.6 µM [activator, single point]",–
Cc1ccccc1NC(=O)Cc1nnc(SCC(=O)NC2CCCCC2)n1C,"inconclusive: 1.46 µM [activator, full curve, poor fit]",–
O=c1c2c(nc3cc(-c4cccc(Cl)c4)[nH]n13)CCCC2,"inconclusive: 16.4 µM [activator, partial curve]",–
CN(C)c1ccc(C(C(=O)NCC2CCCO2)N(Cc2ccccc2)C(=O)c2snc(C(N)=O)c2N)cc1 (configuration not stated),"inconclusive: 13 µM [falling, partial curve, poor fit]",–
CCCn1c(=O)c2ccccc2n2c(SCCOc3ccccc3F)nnc12,"inconclusive: 2.91 µM [falling, partial curve]",–
O=C1CN(C(=O)c2c(F)cccc2F)C(c2ccccc2)c2cc(Br)ccc2N1 (configuration not stated),"inconclusive: 29.1 µM [falling, single point]",–
COc1ccc(C2c3c(N)nc(CCCc4ccccc4)nc3Oc3ccc4ccccc4c32)cc1OC (configuration not stated),–,inactive: -8.85%
O=S(=O)(CCN1CCN(C(c2ccccc2)c2ccccc2)CC1)C(F)(F)F,"inconclusive: 0.731 µM [falling, partial curve, poor fit]",–
COc1cc(NC(=O)Nc2cccc(Cl)c2)c(OC)cc1NC(=O)CN1CCCCC1,"inconclusive: 13 µM [falling, single point]",–
CCN(CC)S(=O)(=O)c1cccc(-c2nnc(SCCOc3ccccc3)o2)c1,"inconclusive: 29.1 µM [falling, single point]",–
CN(C)S(=O)(=O)c1cccc(NC(=O)c2cncc(Br)c2)c1,–,inactive: -4.46%
O=C(Nc1ccccc1)c1cc2ccccc2c(=O)s1,–,inactive: -7.77%
Cc1cc(NC(=O)NC(=O)c2ccc(F)cc2F)n[nH]1,"inconclusive: 0.651 µM [activator, partial curve]",–
CCCN1CCC(NC(=O)Cc2ccccc2OC)CC1,"inconclusive: 2.31 µM [activator, single point]",–
c1ccc(CN2CCN(c3nc(-c4ccccc4)nc4ccccc34)CC2)cc1,"inconclusive: 5.8 µM [activator, full curve, poor fit]",–
Cc1ccccc1C(=O)Nn1cnc2ccccc2c1=O,"inconclusive: 16.4 µM [activator, partial curve]",–
Cc1cccc(NS(=O)(=O)c2ccc3c(c2)OCCO3)c1,"inconclusive: 23.1 µM [falling, partial curve]",–
CCOC(=O)N1CCC(=NNc2ccc(S(=O)(=O)N3CCOCC3)cc2[N+](=O)[O-])CC1,"inconclusive: 0.184 µM [falling, partial curve, poor fit]",–
Cc1cc(C)cc(NC(=O)c2cn3c4c(ccc(Cl)c4c2=O)OC(C)C3)c1 (configuration not stated),"inconclusive: 20.6 µM [activator, single point]",–
